Here are results for 41 compounds from PubChem BioAssay AID493014 (National Center for Advancing Translational Sciences (NCATS), 2011).

This is one part of the list. Shown are side measurements of this screen, not its main read-out; they come without a call. Compounds called inactive in the main read-out are mostly missing here. Words in brackets tell the shape of the fitted curve; partial curves, single points and poor fits give uncertain potencies.

This test in a line: qHTS Assay to Find Inhibitors of Chronic Active B-Cell Receptor Signaling. The settings on record: ABC-DLBCL IkBa-CBG/CBR reporter, luminescence ratio (green luciferase fused to IkBa over red control in TMD8 lymphoma cells), 4 h. The gist of the method: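 Cell line TMD8 (human ABC DLBCL), stably expressing tet-inducible CBG68-IkBa fusion and CBR; IMDM/0.5% FBS; cpd up to 46 uM; dox induction, 4 h, 37C/5% CO2; dual luminescence; green/red ratio; MG132 control.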
In general terms: In qHTS, concentration-response curves come from the screen itself.

The mark [1] stands for this setting: measured here: CBR red luminescence, cell number.
The mark [2] stands for this setting: measured here: IkBa-CBG green luminescence.

As for `Oc1ccc(C=Nc2ccccc2-c2nc3ccccc3[nH]2)c(O)c1`, under setting [1], the AC50 – broadly, the midpoint of the concentration-response curve, whichever way the signal moves – was 29.1 µM [falling, partial curve, poor fit].

Take `COc1ccc(Cl)cc1NC(=O)Nc1ccc(Br)cn1`: the concentration at half-maximal activity (AC50) under setting [1] is 0.116 µM [rising, full curve].

In the case of `COc1cc(/C=C/c2cc(C(=O)O)c3ccccc3n2)ccc1OC(F)F`, the AC50 under setting [1] is 0.501 µM [falling, full curve].

Take `O=C(CN1C(=O)NC2NC(=O)NC21)NN=C1CCCC1` (centres undefined): the AC50 under setting [1] is 6.51 µM [rising, single point].

In the case of `CNC(=O)CSc1nnc(-c2cccc(S(=O)(=O)N3CCOCC3)c2)n1-c1ccc(F)cc1`, under setting [1], the AC50 is 23.1 µM [falling, partial curve, poor fit].

On to `O=C(O)c1cccc(NC(=S)NCc2ccccc2)c1`, for which the AC50 under setting [1] was 11.2 µM [falling, partial curve].

As to `Cc1csc(NC(=O)Cc2c[nH]c3ccccc23)n1`, under setting [1], the AC50 was 35.5 µM [falling, single point].

Take `O=C(Cc1ccccn1)Nc1ccccc1`: under setting [1], the AC50 was 28.2 µM [rising, single point].

Regarding `O=C(OCc1ccccc1F)c1ccc2c(c1)-c1ccccc1C2=O`, the AC50 under setting [1] was 0.0891 µM [falling, full curve, poor fit].

In the case of `Cc1sc(NC(=O)CN(C)C2CCCCC2)nc1-c1ccc2c(c1)CCN2S(=O)(=O)c1ccccc1`, the AC50 under setting [1] was 1.3 µM [falling, full curve, poor fit].

In the case of `CCCn1nnc(NC(=O)c2cccc(OCC)c2)n1`, the AC50 under setting [1] was 0.517 µM [falling, full curve, poor fit].

As for `Cc1cc(N2CCOCC2)ccc1/C=C1\NC(=O)N(CC(=O)Nc2ccccc2C)C1=O`, the AC50 under setting [1] was 2.91 µM [rising, single point].

With `COc1ccccc1NC(=S)N/N=C/c1cccc(C)c1`, the AC50 under setting [1] is 5.17 µM [falling, partial curve].

Turning to `O=C(NNc1nc(N2CCOCC2)nc(N2CCOCC2)n1)Nc1ccc(Cl)cc1`, under setting [1], the AC50 is 7.94 µM [rising, partial curve, poor fit].

Regarding `Cc1cc(C)cc(NC(=O)CSc2nc3c(c(=O)n2C)SC(C)C3)c1` (centres undefined), under setting [1], the AC50 was 6.51 µM [falling, single point].

As for `N#Cc1c(-c2ccccc2)nc(N2CCN(Cc3ccccc3)CC2)[nH]c1=O`, under setting [1], the AC50 is 35.5 µM [falling, partial curve, poor fit].

As to `Cc1cccc(C2Nc3ccccc3C(=O)N2NC(=O)c2ccc([N+](=O)[O-])cc2)n1` (centres undefined), the AC50 under setting [1] is 29.1 µM [rising, single point].

As to `Cc1nc(N/N=C/c2ccc(O)cc2O)cc(N2CCOCC2)n1`, the AC50 under setting [1] was 12.6 µM [falling, partial curve, poor fit].

`C[C@@H]1CN([C@@H](C)CO)C(=O)c2cccc(NC(=O)C3CCCCC3)c2O[C@@H]1CN(C)Cc1ccc(Cl)c(Cl)c1`: under setting [1], the AC50 is 20.6 µM [falling, single point].

As for `CC(C)CSc1nnc2c(n1)[nH]c1ccccc12`, the AC50 under setting [1] was 14.6 µM [falling, single point].

With `C=C(C)COc1ccc(-c2n[nH]c(C)c2-c2ccccc2OC)c(O)c1`, the AC50 under setting [1] is 12.6 µM [rising, partial curve, poor fit].

Turning to `Cc1ccc(NC(=O)c2ccc(COc3ccccc3)o2)nc1`, under setting [1], the AC50 is 22.4 µM [falling, single point].

On to `Cc1ccc(C(=O)N/N=C(\CC(C)C)c2ccccc2)cc1`, for which the AC50 was 29.1 µM [falling, single point] under setting [1] and 23.1 µM [falling, single point] under setting [2].

Consider `O=[N+]([O-])c1ccc(N/N=C/c2ccc(OCc3cccc4ccccc34)cc2)nc1`, for which the AC50 under setting [1] was 10 µM [rising, partial curve, poor fit].

With `O=c1[nH]c(SCc2ccc(Cl)cc2)nc2ccccc12`, the AC50 under setting [1] was 4.47 µM [rising, partial curve, poor fit].

In the case of `CC(C)c1cc(NC(=O)CCl)on1`, the AC50 under setting [1] is 15.8 µM [falling, single point].

As to `Cc1cc(C=O)c(C)n1-c1ccc(NC2CCCCC2)c([N+](=O)[O-])c1`, under setting [1], the AC50 was 22.4 µM [falling, single point].

Regarding `COc1cccc(-c2cc(C(=O)NC3CCCCC3)no2)c1`, the AC50 under setting [1] was 0.708 µM [falling, full curve].

Consider `COc1ccccc1C(=O)NCC(=O)N/N=C/c1ccncc1`, for which, under setting [1], the AC50 was 20 µM [rising, single point].

For the compound `COc1ccc(C2c3ccc(O)cc3Oc3ncn(CCN4CCOCC4)c(=N)c32)cc1OC` (centres undefined), the AC50 is 35.5 µM [rising, single point] under setting [1] and 10 µM [falling, partial curve, poor fit] under setting [2].

`CCc1ccc(CNC(=O)CN2C(=O)CSc3ccc(S(=O)(=O)N4CCOCC4)cc32)cc1`: the AC50 under setting [1] is 25.1 µM [rising, single point].

As to `COc1cc(C(=O)Nc2ccc3c(c2)CCN3C(C)=O)cc(OC)c1OC`, the concentration at half-maximal activity (AC50) reads like this: under setting [1], 35.5 µM [rising, single point]; under setting [2], 22.4 µM [falling, single point].

On to `CCOC(=O)c1nc(NCCc2ccccc2)sc1C`, for which the AC50 under setting [1] is 2.82 µM [rising, partial curve, poor fit].

As to `O=Cc1ccc(OCCCOc2cccc3cccnc23)cc1`, the AC50 under setting [1] is 25.1 µM [falling, single point].

Take `Clc1ccc(C[n+]2cc(-c3ccc(Cl)cc3)n3c2CCC3)cc1`: under setting [1], the AC50 was 6.31 µM [falling, partial curve].

As for `O=C(O)c1cc([N+](=O)[O-])ccc1NCc1ccccn1`, the AC50 under setting [1] is 13 µM [falling, partial curve].

For the compound `CC(=O)N1c2ccc3ccccc3c2C2C=CCC2C1c1ccc(Br)cc1` (centres undefined), under setting [1], the AC50 is 13 µM [falling, partial curve, poor fit].

With `Nc1cc(=O)[nH]c(SCc2csc(-c3ccccc3)n2)n1`, the AC50 under setting [1] is 9.2 µM [rising, partial curve].

For `Cc1cc(SCC(=O)c2cccs2)n2nc(C)c(-c3ccc(Cl)cc3)c2n1`, the AC50 under setting [1] is 7.31 µM [rising, partial curve, poor fit].

With `CC(C)c1ccc(CNc2ncc(Br)cn2)cc1`, under setting [1], the AC50 was 7.08 µM [rising, full curve, poor fit].

`CCOC(=O)c1nc2cc3n(c(CC(C)C)c-2c1C)CC(C)=C3C`: the AC50 under setting [2] is 20.6 µM [rising, single point].
